Source: the supplement of paper PMC10338343
± gives the standard deviation. The list shows a part of the results, in another mix than the full data. Many entries were measured with a wide error.

Experiments:
[1] = test system: MILI (PIWIL2) piRISC loaded with piRNA #1 (26 nt); test: pre-steady-state target cleavage rate (min^-1); higher = faster piRNA-guided slicing of the target; settings: guide: piRNA #1 5'p-UGAGGUAGUAGGUUGUAUAGUAUCCA; auxiliary factor: 500 nM mouse GTSF1
Outline: (§1)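 A transcribed, DNA-blocked target RNA library (0.1 nM) and 1 nM active affinity-purified piRISC bearing one synthetic guide were incubated in HEPES–potassium acetate buffer at 33 °C for 0–8 or 0–960 min, either with or without 500 nM GTSF1 partner protein. Uncleaved targets were sequenced, normalised to depth and to weakly complementary targets, and pooled over three trials, with k3 capped at 0.0001 min^-1. The pre-steady-state cleavage rate was derived with a burst-and-steady-state fit.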

[2] = test system: MIWI (PIWIL1) piRISC loaded with piRNA #1 (30 nt); test: as above; settings: guide: piRNA #1 5'p-UGAGGUAGUAGGUUGUAUAGUAUCCAGAGG; auxiliary factor: 500 nM mouse GTSF1
Outline: as §1

[3] = test system: EfPiwi piRISC loaded with piRNA #1 (26 nt); test: pre-steady-state target cleavage rate (min^-1); guide: piRNA #1 5'p-UGAGGUAGUAGGUUGUAUAGUAUCCA; MIWI and MILI are mouse PIWI proteins and EfPiwi is from a freshwater sponge; tags in brackets are library labels; higher = faster piRNA-guided slicing of the target; settings: auxiliary factor: 500 nM Ephydatia muelleri Gtsf1
Outline: as §1

Row | Sequence | pre-steady-state target cleavage rate [1] | pre-steady-state target cleavage rate [2] | pre-steady-state target cleavage rate [3]
1 | GGAGACCUAUGAUAUGUUGGUACUACCUUCA | 0.000301 ± 0.011 | 0.000442 ± 0.0074 | 0.000581 ± 0.007
2 | GGAGACCUAUGUAUACAACCUAGUACCUGA | 0.000481 ± 0.0094 | 0.000732 ± 0.0057 | 0.000905 ± 0.0049
3 | GGAGACCUAUGAAUACAAGGAACUACCUCA | 0.000923 ± 0.0074 | 0.000124 ± 0.02 | 0.000182 ± 0.013
4 | GGAGACCUAUGAUUACAACCUACUAUCUCA | 0.00332 ± 0.0022 | 0.000269 ± 0.0073 | 0.000633 ± 0.0061
5 | GGAGACCUAUGAUAUGUUCUACUACCUCA | 0.00012 ± 0.023 | 0.00044 ± 0.011 | 0.000659 ± 0.0069
6 | GGAGACCUAUGAUAUCAACGUACUACCUGA | 0.000836 ± 0.0095 | 0.000814 ± 0.0052 | 0.000307 ± 0.0095
7 | GGAGACCUAUGAUAUCAAGCUUCUACCUCA | 0.00143 ± 0.0048 | 0.000239 ± 0.01 | 0.000178 ± 0.018
8 | GGAGACCUAUGAUAACAACCUACUACCAUCA | 0.00305 ± 0.0034 | 0.00102 ± 0.0053 | 0.000334 ± 0.018
9 | GGAGACCUAUGAUAUCUUCCUACUACCUCA | 0.000208 ± 0.011 | 0.000181 ± 0.013 | 0.00107 ± 0.0055
10 | GGAGACCUAUGAUAUCAACCUACGACCUCA | 0.00225 ± 0.0041 | 0.000217 ± 0.013 | 0.000498 ± 0.011
11 | GGAGACCUAUGAUUACAACCUAGUUCCUCA | 0.00109 ± 0.0057 | 0.00077 ± 0.0045 | 0.00101 ± 0.0072
12 | GGAGACCUAUGAAUACAACCUACAACGUCA | 0.00132 ± 0.0048 | 0.000209 ± 0.01 | 0.000222 ± 0.015
13 | GGAGAGGAUACUAUACAACCUAGAUCCUCA | 0.000399 ± 0.014 | 0.00201 ± 0.0045 | 0.00241 ± 0.0021
14 | GGAGACCUAUGAUAUCAACCCACUACCUCA | 0.00124 ± 0.0057 | 0.000366 ± 0.0067 | 0.000684 ± 0.01
15 | GGAGACGAUACUAUACAACCUAGAUGGAGA [g9:g24:cont:t1A] | 0.00112 ± 0.0068 | 0.000869 ± 0.0093 | 0.00285 ± 0.0039
16 | GGAGACCUAUGUAUACUACCUACUAGCUCA | 0.0108 ± 0.0031 | 0.000606 ± 0.0063 | 0.00143 ± 0.0062
17 | GGAGACCUAUGAUUACAACCAUACUACCUCA | 0.000766 ± 0.0047 | 0.000249 ± 0.0069 | 0.000736 ± 0.01
18 | GGAGACCUAUGAUAAGUUCCUACUACCUCA | 0.000339 ± 0.013 | 0.000628 ± 0.0069 | 0.00143 ± 0.0052
19 | GGAGACCUAACUAUACAACGAACUACCUCA | 0.0033 ± 0.0053 | 0.000119 ± 0.047 | < 0.0001
20 | GGAGACCUAUGAUAUCAUCCAACUACCUCA | 0.000447 ± 0.0077 | 0.000509 ± 0.0089 | 0.000253 ± 0.013
21 | GGAGACCUAACUAAACAACCUACUUCCUCA | 0.0346 ± 0.013 | 0.00339 ± 0.0042 | 0.00153 ± 0.0054
22 | GGAGACCUAUGAUUAGUACCUACUACCUCA | 0.000651 ± 0.0068 | 0.000533 ± 0.0078 | 0.00197 ± 0.0049
23 | GGAGACCUAUGAUAUGUUGAUACUACCUCA | 0.000337 ± 0.01 | 0.000933 ± 0.0039 | 0.000383 ± 0.0048
24 | GGAGACCUAUGUAUACAACCUACUUGGAGA [g7:g19:cont:t1A] | 0.00128 ± 0.0056 | 0.00107 ± 0.0047 | 0.000472 ± 0.0094
25 | GGAGACCUAUGAUUACAACCUACUACCUGA | 0.00263 ± 0.0027 | 0.000904 ± 0.0046 | 0.00143 ± 0.0036

Copied from the list:
Under pre-steady-state target cleavage rate [3], GGAGACCUAACUAUACAACGAACUACCUCA has < 0.0001
Under pre-steady-state target cleavage rate [3], GGAGACCUAUGAUAUCAUCCAACUACCUCA has 0.000253 ± 0.013

Following part

Row | Sequence | pre-steady-state target cleavage rate [1] | pre-steady-state target cleavage rate [2] | pre-steady-state target cleavage rate [3]
26 | GGAGUGGAUACUAUACAACCUACUUCCUGA | 0.000232 ± 0.0094 | 0.000264 ± 0.0097 | 0.00267 ± 0.0023
27 | GGAGACCUAUGAUUACAACCUACUACAUCA | 0.00185 ± 0.0035 | 0.00359 ± 0.0039 | 0.00156 ± 0.0056
28 | GGAGACCUAUGAUAUCAACCUUACUACCUCA | 0.000995 ± 0.0049 | 0.000241 ± 0.0084 | 0.000203 ± 0.01
29 | GGAGACCUAUGAUAUCAUCCUACUACGUCA | 0.000554 ± 0.0078 | 0.000742 ± 0.0057 | 0.00132 ± 0.0064
30 | GGAGACCUAUGUAAACAACCUACAACCUCA | 0.0135 ± 0.0041 | 0.000766 ± 0.0071 | 0.000106 ± 0.025
31 | GGAGACCUAACUAUACAACCACUACCUCA | 0.00068 ± 0.018 | 0.000459 ± 0.018 | 0.00546 ± 0.0044
32 | GGAGACCUAACUAUACAACCUACUAGGUCA | 0.000242 ± 0.051 | 0.00115 ± 0.01 | 0.00196 ± 0.0036
33 | GGAGACCUAUCUAUACAACCUUGAUGGAGA [g10:g20:cont:t1A] | 0.000568 ± 0.0095 | 0.000913 ± 0.0082 | 0.00115 ± 0.0054
34 | GGAGACCUAACUAUACAACCAAGUACCUCA | 0.00119 ± 0.012 | 0.000588 ± 0.011 | 0.00088 ± 0.009
35 | GGAGACCUAUGAUUACAACGUACAACCUCA | 0.00532 ± 0.0027 | 0.000297 ± 0.007 | 0.00151 ± 0.0063
36 | GGAGACCUAUGAAUACAACCAACAACCUCA | 0.00158 ± 0.0052 | 0.000564 ± 0.0056 | 0.000209 ± 0.026
37 | GGAGACCUAUGAAUACAACCUACUAUCUCA | 0.00527 ± 0.0017 | 0.000311 ± 0.0078 | 0.00136 ± 0.0045
38 | GGAGACCUUACUAUACAACCUUGAUGGAGA [g10:g22:cont:t1A] | 0.00047 ± 0.0072 | 0.000682 ± 0.008 | 0.000744 ± 0.0077
39 | GGAGACCUAUGAUUACACCCUACUACCUCA | 0.00215 ± 0.0029 | 0.00219 ± 0.0038 | 0.00142 ± 0.0044
40 | GGAGACCUAUGAUAUGUUGCUGCUACCUCA | 0.000114 ± 0.022 | 0.000183 ± 0.011 | 0.000171 ± 0.015
41 | GGAGACCUAUGAAUACACACCUACUACCUCA | 0.000975 ± 0.0076 | 0.000738 ± 0.0086 | 0.000246 ± 0.023
42 | GGAGACCUAUCUAUACAACACUACUACCUCA | 0.000913 ± 0.0084 | 0.000259 ± 0.021 | 0.000675 ± 0.0096
43 | GGAGACCUAUGAAUAACAACCUACUACCUCA | 0.00368 ± 0.0026 | 0.00125 ± 0.0055 | 0.000909 ± 0.0071
44 | GGAGACCUAUGAUAUCAACCUUCUACCUCA | 0.0016 ± 0.003 | 0.000338 ± 0.006 | 0.000695 ± 0.0072
45 | GGAGACCUAUGAAUACAUACCUACUACCUCA | 0.000558 ± 0.0094 | 0.000626 ± 0.0068 | 0.000445 ± 0.0094
46 | GGAGACCUAUGAUAUGUUGGUGCUACCUCA | 0.000123 ± 0.035 | 0.000404 ± 0.013 | 0.000321 ± 0.017
47 | GGAGACCUAUGAUUACAACCUACAAGCUCA | 0.00117 ± 0.0058 | 0.000137 ± 0.012 | 0.000254 ± 0.014
48 | GGAGACCUAUGUAUACAACGUACUUCCUCA | 0.0105 ± 0.0026 | 0.00201 ± 0.004 | 0.00325 ± 0.0044
49 | GGAGACCUAUGAAUACAACGUUCUACCUCA | 0.00201 ± 0.0033 | 0.000222 ± 0.016 | 0.00027 ± 0.012
50 | GGAGUGGAUACUAUACAACCUCACUACCUCA | 0.00285 ± 0.003 | 0.00226 ± 0.0032 | 0.00417 ± 0.0022
